PubChem BioAssay AID686937, Drosophila RNAi Screening Center – 2013
In all, the deposit lists about 23,000 reagents; below is a random part of those that have a named target and a result. 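Reduced-secretion tags in replicate 1 do not always agree with the z-scores; no criterion for assigning the tags was given.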 Reagents against one gene are numbered here. Not all columns of the deposit are shown. Not stated in the record: the amount of reagent.

Aim: 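Knock-downs that reduce output of a secreted reporter enzyme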 (primary screen)
Cells: Drosophila S2 cells expressing secreted horseradish peroxidase
Reagent: long dsRNA against Drosophila genes
Duration: about 5.5 days (5 days dsRNA, then 12 h reporter induction)
Challenge: reporter expression induced after 5 days of dsRNA, read 12 h later; inducer not stated
Read-out: 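Chemiluminescent measurement of peroxidase in the medium 12 h after reporter induction, following 5 days of dsRNA, given as a z-score per plate; higher means more secretion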
Scale: z-score: higher = more reporter secreted into medium

The first 2 entries, to show the layout:
{"Gene": "CR10991", "reagent no.": 1, "z-score, replicate 1": 0.18}
{"Gene": "mbc", "reagent no.": 1, "z-score, replicate 1": 0.01}

The listing, from the first entry:
{"Gene": "CR10991", "reagent no.": 1, "z-score, replicate 1": 0.18}
{"Gene": "mbc", "reagent no.": 1, "z-score, replicate 1": 0.01}
{"Gene": "Dlip1", "reagent no.": 1, "z-score, replicate 1": 0.52}
{"Gene": "Slc25A46b", "reagent no.": 1, "z-score, replicate 1": -0.32}
{"Gene": "CG3494", "reagent no.": 1, "z-score, replicate 1": 0.34}
{"Gene": "CG15425", "reagent no.": 1, "z-score, replicate 1": 0.49}
{"Gene": "Gyg", "reagent no.": 1, "z-score, replicate 1": -3.31}
{"Gene": "Gyg", "reagent no.": 2, "z-score, replicate 1": 0.27}
{"Gene": "EMC1", "reagent no.": 1, "z-score, replicate 1": 0.31}
{"Gene": "CG4630", "reagent no.": 1, "z-score, replicate 1": 0.31}
{"Gene": "Trim9", "reagent no.": 1, "z-score, replicate 1": 0.23}
{"Gene": "CG4681", "reagent no.": 1, "z-score, replicate 1": 0.07}
{"Gene": "arx", "reagent no.": 1, "z-score, replicate 1": 0.23}
{"Gene": "NijB", "reagent no.": 1, "z-score, replicate 1": 0.63}
{"Gene": "Hsc70-1", "reagent no.": 1, "z-score, replicate 1": -0.85}
{"Gene": "CG14543", "reagent no.": 1, "z-score, replicate 1": -0.13}
